{"source": "patent US20160152831A1", "about": "“YELLOW COLORANT FOR HAIR DYEING, COMPOSITION FOR HAIR DYEING, AND HAIR DYEING METHOD” (HODOGAYA CHEMICAL CO., LTD., priority 2013, published 2016)", "key": {"[1]": {"test": "Hair dyeing of human gray hair in dye composition; dyeing density (K/Sd) and color values by spectrophotometer", "conditions": "for K/Sd (dyeing density) / L* / a* / b*: 0.2% dye, 8% benzyloxyethoxyethanol, pH 6, 45° C. 20 minutes; for color of dyed hair: Table 3 test samples, pH 6", "protocol": "In the following Examples and Comparative Examples, the test samples obtained were evaluated by using a spectrophotometer (Color Technosystem, JS555). The dyeing density (K/Sd) was calculated according to the following process. The reflectance (Rλ) at an indicated wavelength (λ) of the test sample before dyeing (gray hair) and after dyeing (dyed hair) was measured with the spectrophotometer, and according to the following Kubelka-Munk equation, the optical density (K/S) was calculated. The value calculated by subtracting the optical density (K/S) of the gray hair from the optical density (K/S) of the dyed hair is referred to as the dyeing density (K/Sd).\nRλ: reflectance at wavelength (λ),\nλ: 400 to 700 nm (at intervals of 10 nm)\nRegarding the color, L*, ^a* and b* were measured by using the spectrophotometer and using a color coordinate system CIE L*a*b*, The L* indicates brightness and larger value means a lower coloration intensity. The a* and b* are chromaticity each indicating hue and saturation. The a* corresponds to the pair axis of red/green, and a positive value means red and a negative value means green. The b* corresponds to the pair axis of yellow/blue, and a positive value means yellow and a negative value means blue.\nThe color (L*, a*, b*) of the test sample before dyeing and after dyeing was measured, and from the value of the difference ΔL*, Δa* and Δb*, the color difference ΔE* was calculated according to the following equation.\nΔE*={(ΔL*)^2+(Δa*)+(Δb*)^2}^1/2\nIn the resultant aqueous solution having a pH of 6 were added Yellow 29 as a dye and benzyloxyethoxyethanol as a penetrant in the ratio as shown in Table 2 to prepare a composition for hair dyeing having a pH of 6. A 10 g of the thus-prepared composition for hair dyeing was metered, and 1 g of human gray hair (100%, Beaulax, Item Code BM-W-A) was put thereinto and dyed at 45° C. for 20 minutes. The resultant dyed hair was rinsed with water (running water at 15 to 25° C., for about 1 minute), then soaped under the soaping condition mentioned below, further rinsed with water (running water at 15 to 25° C., for about 1 minute), and then spontaneously dried at room temperature (about 20° C.) to prepare a test sample. In the following Examples and Comparative Examples, the pH of the composition for hair dyeing was controlled in the manner as in Table 1. In the Table, the concentration (g/kg) indicates the concentration of the p1:1 regulator in the aqueous solution.\nSoaping liquid: aqueous 5% sodium laurylsulfate solution\nBath ratio: 1/10 (mass of soaping liquid relative to 1 g mass of dyed hair)\n(§1) Processing temperature: 45° C.\nProcessing time: 5 minutes"}, "[2]": {"test": "Shampooing-fastness test of dyed hair", "assay_type": "physicochemical, human", "protocol": "The test sample with Yellow 29 prepared in Example 1 was tested according to the shampooing-fastness test mentioned below, and the dyeing density (K/Sd) and color difference (ΔE*) before and after the test were determined. In the Table, the residual ratio (%) means the ratio of the dyeing density after the test to the dyeing density before the test.\nThe test sample was subjected to a cycle operation of (1) shampooing followed by (2) treatment as mentioned below, repeatedly five times in all, and then spontaneously dried at room temperature (about 20° C.).\nShampoo liquid: aqueous 5% sodium laurylsulfate solution\nBath ratio: 1/10 (mass of shampooing liquid relative to 1 g mass of dyed hair)\nas §1\nProcessing time: 20 minutes\nPost-treatment: rinsing with water\nTreatment liquid: aqueous 5% trimethylstearylammonium chloride solution\nBath ratio: 1/10 (mass of treatment liquid relative to 1 g mass of dyed hair)"}, "[3]": {"test": "Light-fastness test of dyed hair (xenon fade meter)", "assay_type": "physicochemical, human", "protocol": "A composition for hair dyeing having a pH of 6 was prepared according to the compounding formation as shown in Table 6 by using Yellow 29 as the dye. By using the thus-prepared composition for hair dyeing, a test sample was prepared according to the same method as in Example 1. The resultant test sample was exposed to white light at an irradiation dose of 330 W/m^2 for 20 hours, by using a xenon long-life fade meter light-fastness tester Suga Test Instrument, FAL-25AX-HC-BEC Model), and the dyeing density (K/Sd) and the color values (L*, a*, b*) before and after the test, and the color difference (ΔE*) were determined. The light-fastness test was carried out under the condition where the temperature of the test sample could be from 60 to 66° C."}, "[4]": {"conditions": "after test, 5 cycles of shampooing and treatment, 45° C."}, "[5]": {"conditions": "after test, 330 W/m^2, 20 hours"}, "[6]": {"conditions": "after test, white light 330 W/m^2, 20 hours"}, "[7]": {"conditions": "before test, 0.2% dye, 8% benzyl alcohol, 8% ethanol, pH 6"}}, "data": [{"molecule": "Cc1ccc(N(C)/N=C/C2=[N+](C)c3ccccc3C2(C)C)cc1", "note": "[Yellow 29, C. I. Basic Yellow 29]", "values": [{"measurement": "K/Sd (dyeing density)", "setting": "[1]", "value": 96.5}, {"measurement": "L*", "setting": "[1]", "value": 68.98}, {"measurement": "a*", "setting": "[1]", "value": 18.83}, {"measurement": "b*", "setting": "[1]", "value": 72.42}, {"measurement": "color of dyed hair", "setting": "[1]", "value": "standard yellow"}, {"measurement": "L*", "setting": "[2]; after test, 5 cycles", "value": 71.12}, {"measurement": "a*", "setting": "[2]; after test, 5 cycles", "value": 12.62}, {"measurement": "b*", "setting": "[2]; after test, 5 cycles", "value": 71.99}, {"measurement": "K/Sd", "setting": "[2]; [4]", "value": 79.2}, {"measurement": "K/Sd", "setting": "[2]; before test", "value": 96.5}, {"measurement": "L*", "setting": "[2]; before test", "value": 68.98}, {"measurement": "a*", "setting": "[2]; before test", "value": 18.83}, {"measurement": "b*", "setting": "[2]; before test", "value": 72.42}, {"measurement": "L*", "setting": "[3]; [5]", "value": 71.33}, {"measurement": "a*", "setting": "[3]; [5]", "value": 13.79}, {"measurement": "b*", "setting": "[3]; [5]", "value": 72.82}, {"measurement": "K/Sd", "setting": "[3]; [6]", "value": 75.1}, {"measurement": "L*", "setting": "[3]; before test", "value": 71.38}, {"measurement": "a*", "setting": "[3]; before test", "value": 15.36}, {"measurement": "b*", "setting": "[3]; before test", "value": 75.08}, {"measurement": "K/Sd", "setting": "[3]; [7]", "value": 84.6}]}, {"molecule": "Cc1nn(-c2ccccc2)c(O)c1/N=N/c1cccc([N+](C)(C)C)c1.[Cl-]", "note": "[Yellow 57, C.I. Basic Yellow 57]", "values": [{"measurement": "K/Sd (dyeing density)", "setting": "[1]", "value": 28.5}, {"measurement": "L*", "setting": "[1]", "value": 74.73}, {"measurement": "a*", "setting": "[1]", "value": 1.68}, {"measurement": "b*", "setting": "[1]", "value": 47.03}, {"measurement": "color of dyed hair", "setting": "[1]", "value": "pale yellow"}, {"measurement": "L*", "setting": "[3]; [5]", "value": 69.71}, {"measurement": "a*", "setting": "[3]; [5]", "value": 0.98}, {"measurement": "b*", "setting": "[3]; [5]", "value": 41.17}, {"measurement": "K/Sd", "setting": "[3]; [6]", "value": 29.7}, {"measurement": "L*", "setting": "[3]; before test", "value": 74.81}, {"measurement": "a*", "setting": "[3]; before test", "value": 2.08}, {"measurement": "b*", "setting": "[3]; before test", "value": 49.92}, {"measurement": "K/Sd", "setting": "[3]; [7]", "value": 30.4}]}, {"molecule": "CN(/N=C\\c1cc[n+](C)cc1)c1ccccc1", "note": "[Yellow 87, C.I. Basic Yellow 87]", "values": [{"measurement": "K/Sd (dyeing density)", "setting": "[1]", "value": 65.5}, {"measurement": "L*", "setting": "[1]", "value": 74.04}, {"measurement": "a*", "setting": "[1]", "value": 1.64}, {"measurement": "b*", "setting": "[1]", "value": 68.74}, {"measurement": "color of dyed hair", "setting": "[1]", "value": "slightly pale yellow"}, {"measurement": "L*", "setting": "[2]; after test, 5 cycles", "value": 75.22}, {"measurement": "a*", "setting": "[2]; after test, 5 cycles", "value": "−3.04"}, {"measurement": "b*", "setting": "[2]; after test, 5 cycles", "value": 48.46}, {"measurement": "K/Sd", "setting": "[2]; [4]", "value": 21.8}, {"measurement": "K/Sd", "setting": "[2]; before test", "value": 65.5}, {"measurement": "L*", "setting": "[2]; before test", "value": 74.04}, {"measurement": "a*", "setting": "[2]; before test", "value": 1.64}, {"measurement": "b*", "setting": "[2]; before test", "value": 69.74}]}]}
